Measured values published in publication PMC3979655.
Read-outs that look alike come from different tables or passages of the source. These are yes or no findings as the source states them, for the method shown. Binding seen in cells or lysates may run through a third protein. Some entries that bind do so weakly or less than the wild type. Where a sequence is shown, tags or fusion partners need not be part of it.

The chains behind the UniProt entries cited, without tags or fusion partners.
UniProt Q84L30: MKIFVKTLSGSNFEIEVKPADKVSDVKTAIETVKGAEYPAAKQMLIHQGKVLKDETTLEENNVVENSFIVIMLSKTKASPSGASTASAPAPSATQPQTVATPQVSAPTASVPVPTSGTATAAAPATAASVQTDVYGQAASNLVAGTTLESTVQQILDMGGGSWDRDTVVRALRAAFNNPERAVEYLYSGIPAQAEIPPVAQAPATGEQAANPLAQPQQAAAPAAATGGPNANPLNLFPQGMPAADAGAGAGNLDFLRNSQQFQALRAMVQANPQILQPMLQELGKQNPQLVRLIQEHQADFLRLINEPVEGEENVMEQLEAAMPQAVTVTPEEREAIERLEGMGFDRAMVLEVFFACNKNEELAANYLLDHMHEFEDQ
UniProt Q84L31: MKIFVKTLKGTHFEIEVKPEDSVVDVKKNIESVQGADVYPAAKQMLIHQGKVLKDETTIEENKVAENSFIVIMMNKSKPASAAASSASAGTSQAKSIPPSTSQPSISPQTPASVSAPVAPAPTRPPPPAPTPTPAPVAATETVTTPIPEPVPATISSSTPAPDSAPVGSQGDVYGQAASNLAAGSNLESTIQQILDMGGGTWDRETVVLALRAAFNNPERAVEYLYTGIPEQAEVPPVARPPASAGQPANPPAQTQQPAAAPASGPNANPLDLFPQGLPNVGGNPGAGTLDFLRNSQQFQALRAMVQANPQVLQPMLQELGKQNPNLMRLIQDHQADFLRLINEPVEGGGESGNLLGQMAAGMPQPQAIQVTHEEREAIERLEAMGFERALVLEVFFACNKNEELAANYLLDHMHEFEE

T1: GFP–SAP54 (35S:GFP–SAP54, amino acids 34 to 124) in transgenic Arabidopsis (Aster Yellows phytoplasma strain Witches' Broom (AY-WB)) (UniProt Q2NJQ2)
T1 sequence: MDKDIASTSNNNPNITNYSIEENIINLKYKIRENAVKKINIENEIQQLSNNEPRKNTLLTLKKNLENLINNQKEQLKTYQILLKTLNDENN


How the values were obtained:
[1] = target: T1, GFP–SAP54 (35S:GFP–SAP54, amino acids 34 to 124) in transgenic Arabidopsis (Aster Yellows phytoplasma strain Witches' Broom (AY-WB)); experiment: co-IP; immunoprecipitation of GFP–SAP54 or GFP from transgenic Arabidopsis (Col-0 and rad23CD double mutant); blot with anti-RAD23
[2] = target: T1, GFP–SAP54 (35S:GFP–SAP54, amino acids 34 to 124) in transgenic Arabidopsis (Aster Yellows phytoplasma strain Witches' Broom (AY-WB)); experiment: as above; remark: listed apart in the source

| Molecule | binding [1] | binding [2] |
| --- | --- | --- |
| RAD23D (40 kDa), endogenous in Arabidopsis (from UniProt Q84L30 1-378) | binds |  |
| RAD23C (44 kDa), endogenous in Arabidopsis (from UniProt Q84L31 1-419) | binds |  |
| RAD23A, endogenous in Arabidopsis (rad23CD double mutant) (protein, UniProt Q84L32 1-368) MKLTVKTLKGSHFEIRVLPTDTIMAVKKNIEDSQSKDNYPCGQQLLIHNGKVLKDETTLVENKVTEEGFLVVMLSKSKTASSAGPSSTQPTSTTTSTISSTTLAAPSTTQSIAVPASNSTPVQEQPTAQSDTYGQAASTLVSGSSIEQMVQQIMEMGGGSWDKETVTRALRAAYNNPERAVDYLYSGIPETVTIPATNLSGVGSGRELTAPPPSGGPNSSPLDLFPQEAVSDAAGGDLGTLEFLRGNDQFQQLRSMVNSNPQILQPMLQELGKQNPQLLRLIQENQAEFLQLLNEPYEGSDGDVDIFDQPDQEMPHSVNVTPEEQESIERLEAMGFDRAIVIEAFLSCDRNEELAANYLLEHSADFED |  | no binding |
| RAD23B, endogenous in Arabidopsis (rad23CD double mutant) (protein, UniProt Q84L33 1-371) MKLTVKTLKGSHFEIRVLPSDTIMAVKKNIEDSQGKDNYPCGQQLLIHNGKVLKDETSLVENKVTEEGFLVVMLSKSKSGGSAGQASVQTSSVSQPVSATTSSTKPAAPSTTQSSPVPASPIPAQEQPAAQTDTYGQAASTLVSGSSLEQMVQQIMEMGGGSWDKETVTRALRAAYNNPERAVDYLYSGIPQTAEVAVPVPEAQIAGSGAAPVAPASGGPNSSPLDLFPQETVAAAGSGDLGTLEFLRNNDQFQQLRTMVHSNPQILQPMLQELGKQNPQLLRLIQENQAEFLQLVNEPYEGSDGEGDMFDQPEQEMPHAINVTPAEQEAIQRLEAMGFDRALVIEAFLACDRNEELAANYLLENSGDFED |  | no binding |
